Assay results taken from patent US20250368638A1, “BICYCLIC INHIBITORS OF NICOTINAMIDE […], COMPOSITIONS AND USES THEREOF” (President and Fellows of Harvard College, priority 2021, published 2025).

System: Caco-2 cell monolayer
Experiment: Assessment of Caco-2 cell monolayer integrity (TEER, Lucifer Yellow leakage)
Format: in vitro ADME
Conditions: Caco-2 monolayer; for LY Leakage A-B / LY Leakage B-A: Lucifer Yellow

Compound	TEER A-B [W × cm^2]	TEER B-A [W × cm^2]	LY Leakage A-B [%]	LY Leakage B-A [%]
C[C@H]1O[C@@H](O[C@H]2[C@@H](O)C[C@H](O[C@H]3[C@@H](O)C[C@H](O[C@H]4CC[C@@]5(C)[C@H](CC[C@@H]6[C@@H]5C[C@@H](O)[C@]5(C)[C@@H](C7=CC(=O)OC7)CC[C@]65O)C4)O[C@@H]3C)O[C@@H]2C)C[C@H](O)[C@@H]1O [Digoxin]	470	457	0.27	0.28
CC(C)NCC(O)COc1cccc2ccccc12 (stereo not shown) [Propranolol]	442	431	0.28	0.30
C[C@@H]1Cc2cc(C(N)=O)cnc2N1 [Compound 11, (2R)-2-methyl-2,3-dihydro-1H-pyrrolo[2,3-b]pyridine-5-carboxamide]	555	496	0.34	0.33
COc1cc2nc(N3CCN(C(=O)c4ccco4)CC3)nc(N)c2cc1OC [Prazosin]	434	427	0.30	0.29
